Results published in PubChem BioAssay AID493014 (National Center for Advancing Translational Sciences (NCATS), 2011).
The list shows a part of the results. The main result of the screen is listed elsewhere. These columns were measured beside it and carry no call. Most of these compounds were active or inconclusive in the main read-out, so they are no random draw. Potencies come from curve fits of mixed quality, noted in brackets.

Experiment: qHTS Assay to Find Inhibitors of Chronic Active B-Cell Receptor Signaling
Details: ABC-DLBCL IkBa-CBG/CBR reporter, luminescence ratio (green luciferase fused to IkBa over red control in TMD8 lymphoma cells), 4 h
Method in brief: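 Concentration-response series (up to 46 uM) were applied to TMD8 dual-reporter cells for 4 h at 37C with doxycycline. Green/red ratio, after filter-overlap correction, defined %Activity; red signal alone was normalised to basal cells and zero luminescence.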

[1] = measured here: CBR red luminescence, cell number
[2] = measured here: IkBa-CBG green luminescence

| Structure (SMILES) | AC50 [1] | AC50 [2] |
| --- | --- | --- |
| COc1ccc(-c2nc(C(N)=O)c3[nH]c(=O)n(-c4cccc(Cl)c4)c3n2)cc1OC | 1.03 µM [falling, full curve] | – |
| COc1ccc(N(CC(=O)Nc2cc([N+](=O)[O-])ccc2C)S(C)(=O)=O)cc1OC | 35.5 µM [falling, single point] | – |
| COc1cccc(-c2nc(CS(=O)(=O)CC(=O)NCCc3ccc(OC)cc3OC)c(C)o2)c1 | 1.58 µM [rising, partial curve, poor fit] | – |
| Cc1ccc(NC(=O)c2noc3c2CCC3)cc1C | 15.8 µM [falling, single point] | – |
| Cc1c(C)c(C)c2[nH]c(-c3ccc4c(c3)OCO4)nc2c1C | 2.51 µM [falling, full curve] | – |
| C=CCC[C@H](Cc1ccc(F)cc1)C(=O)OC[C@@H](Cc1c[nH]c2ccccc12)NC(=O)[C@@H](CC=C)CC(=O)N(CCO)Cc1ccccc1 | 18.4 µM [falling, single point] | – |
| COc1ccc(OC)c(Nc2nc(C)nc3c2oc2ccccc23)c1 | 5.62 µM [falling, single point] | – |
| CCOC(=O)C1(CCc2ccccc2)CCN(C2Cc3ccccc3C2)CC1 | 0.501 µM [rising, partial curve, poor fit] | – |
| CCCc1ccc(OCc2ccc(C(=O)OC)o2)c(OC)c1 | 0.411 µM [falling, full curve, poor fit] | – |
| CN(C)CCNc1ncnc2c1cnn2-c1ccc(Cl)cc1 | 29.1 µM [falling, single point] | – |
| Nn1c(SCC(=O)Nc2ccc(F)cc2)nnc1-c1cccnc1 | 5.8 µM [falling, full curve, poor fit] | – |
| CCC1=NN(C(=O)Cc2ccccc2)C(O)(c2ccncc2)C1 (configuration not stated) | 7.94 µM [falling, partial curve, poor fit] | – |
| O=C(NC1(O)C(=O)c2ccccc2C1=O)c1ccc(C(F)(F)F)cc1 | 22.4 µM [rising, single point] | – |
| O=C(O)c1cccc2c1-c1ccccc1/C2=N\Nc1ccccc1 | 6.31 µM [falling, full curve, poor fit] | – |
| O=C(/C=C/c1ccccc1)C1=C(O)C(=O)N(CCO)C1c1ccc2c(c1)OCO2 (configuration not stated) | 0.501 µM [rising, full curve, poor fit] | – |
| CCN1CCN(C(=O)C2CC(c3ccc(F)cc3)=NO2)CC1 (configuration not stated) | 0.517 µM [rising, partial curve, poor fit] | – |
| Cc1cccc(N2CCN(C(=O)Cn3ccc4ccccc4c3=O)CC2)c1C | 1.84 µM [rising, full curve, poor fit] | – |
| Cc1ccc2nc(-c3ccc(NC(=O)COC(=O)c4ccco4)cc3)sc2c1 | 1.3 µM [rising, full curve] | – |
| COC(=O)c1sc(S(=O)(=O)N2CCC(C(=O)O)CC2)c(C(=O)OC)c1C | 6.51 µM [rising, single point] | – |
| CCCc1nc2ccccc2c(=O)n1/N=C/c1ccc(O)cc1O | 2.82 µM [falling, partial curve] | – |
| O=C(NCc1cccnc1)C1c2ccccc2C(=O)N1Cc1ccccc1 (configuration not stated) | 14.6 µM [rising, partial curve, poor fit] | – |

| Structure (SMILES) | AC50 [1] | AC50 [2] |
| --- | --- | --- |
| CCc1ccc(OCC(=O)O/N=C(\N)c2cccnc2)cc1 | 3.55 µM [rising, single point] | – |
| Cc1nn(C(=O)c2ccccc2)c2c1C(=O)CC(C)(C)C2 | 8.2 µM [falling, partial curve, poor fit] | – |
| O=C(COc1ccc(Cl)cc1Br)N1CCN(c2ncccn2)CC1 | 29.1 µM [rising, single point] | 5.17 µM [falling, partial curve, poor fit] |
| Cc1ccc(NC(=S)N(CCCN2CCCC(C)C2)Cc2ccco2)cc1C (configuration not stated) | 6.31 µM [rising, partial curve, poor fit] | – |
| Cc1ccc(/C=N/NC(=O)c2ccco2)cc1 | 5.62 µM [falling, partial curve] | – |
| Cc1nc(Nc2ccc(Cl)c(Cl)c2)sc1C(=O)Nc1ccccc1 | 16.4 µM [falling, partial curve] | – |
| COCCNC(=O)/C(C#N)=C/c1cccc(OCc2ccccc2)c1 | 35.5 µM [falling, single point] | – |
| COc1ccc(N(CC(=O)Nc2ccc3c(c2)OCCO3)S(C)(=O)=O)c(OC)c1 | 3.16 µM [rising, full curve, poor fit] | – |
| O=C(Cc1nc2ccccc2[nH]1)c1cccc([N+](=O)[O-])c1 | 10 µM [falling, partial curve] | – |
| COc1ccccc1C(=O)NCCn1cc(SCC(=O)Nc2nnc(C)s2)c2ccccc21 | 14.1 µM [falling, single point] | – |
| COc1ccc(NC(=O)CSc2nnnn2C2CCCCC2)c(OC)c1 | 0.1 µM [rising, full curve, poor fit] | – |
| CCCC(=O)Nc1cc(S(=O)(=O)N(CC)CC)ccc1Cl | 18.4 µM [rising, single point] | – |
| COCCNC(=O)c1ccc2c(=O)n(CCOC)c(=O)[nH]c2c1 | 1.12 µM [falling, full curve, poor fit] | 11.2 µM [rising, partial curve, poor fit] |
| O=C(/C=C/c1ccc(Cl)cc1)Nc1nccs1 | 2.82 µM [falling, full curve, poor fit] | – |
| COC(=O)c1ccccc1NC(=O)CCCN1C(=O)C(c2ccccc2)Oc2cccnc21 (configuration not stated) | 1.78 µM [falling, full curve, poor fit] | – |
| Cc1cc(C)n2nc(SCC(=O)c3ccccc3)nc2n1 | 18.4 µM [falling, partial curve] | – |
| Cc1ccc(C(=O)OCC(=O)N2C(C)CCCC2C)cc1S(=O)(=O)N1CCOCC1 (configuration not stated) | 16.4 µM [rising, single point] | – |
| Cc1ccc(C2(C)NC(=O)N(CC(=O)Nc3ccccc3N3CCCC3)C2=O)cc1 (configuration not stated) | 6.51 µM [falling, single point] | – |
| Cc1ccc(NC(=O)c2ccccc2)cc1OC(=O)c1ccccc1 | 15.8 µM [falling, single point] | – |
| c1ccc(-c2csc3ncnc(NCc4ccccn4)c23)cc1 | 35.5 µM [falling, single point] | – |
| C/C(=N\NC(=O)c1ccc(C)cc1C)c1ccc2c(c1)OCO2 | 29.1 µM [falling, single point] | – |

| Structure (SMILES) | AC50 [1] | AC50 [2] |
| --- | --- | --- |
| CCCn1nnc(NC(=O)c2ccc(Cl)cc2Cl)n1 | 10.3 µM [rising, partial curve, poor fit] | – |
| NNC(=O)c1cc2ccccc2[nH]1 | – | 25.1 µM [falling, single point] |
| CCOC(=O)C1=C(C)NC2=C(C(=O)CCC2)C1c1coc2ccccc2c1=O (configuration not stated) | 32.6 µM [rising, single point] | – |
| Cc1ccc(-n2c(C)nn(Cc3ccc([N+](=O)[O-])cc3)c2=O)cc1 | 0.562 µM [rising, full curve, poor fit] | – |
| O=C(O)CCCCCNc1nc(=S)[nH]c2ccccc12 | 13 µM [falling, partial curve] | – |
| CCCCc1ccc(-c2ccc(Br)cc2O)nc1 | 0.0411 µM [falling, full curve] | – |
| CCOC(=O)C1=C(O)/C(=C/c2ccc(-c3ccccc3C(=O)O)o2)SC1=Nc1ccc(C)cc1 | 12.6 µM [falling, partial curve, poor fit] | – |
| COc1ccc(-c2cnnn2-c2ccc(N)cc2)cc1OC | 29.1 µM [rising, single point] | 18.4 µM [falling, partial curve, poor fit] |
| CCOC(=O)N1CCN(S(=O)(=O)c2ccc(C(=O)Nc3ccc(F)cc3F)cc2)CC1 | 35.5 µM [rising, single point] | 12.6 µM [falling, partial curve] |
| O=C(Nc1nccs1)c1cccc(N2C(=O)c3cccc4c([N+](=O)[O-])ccc(c34)C2=O)c1 | 18.4 µM [falling, single point] | – |
| CC(C)c1ccc(NC2CCCN(C(=O)c3ccsc3)C2)cc1 (configuration not stated) | 2.51 µM [rising, partial curve, poor fit] | – |
| CCOC(=O)C1CCN(C(=O)CCc2c(C)nc3cc(-c4ccccc4)nn3c2C)CC1 | 11.2 µM [falling, partial curve, poor fit] | – |
| O=C(CCc1ccccc1)NC(=S)Nc1ccc(S(=O)(=O)N2CCOCC2)cc1 | 9.2 µM [rising, partial curve] | – |
| COc1ccc(/C=C/C(=O)OCC(=O)NC2CCCC(C)C2C)c(OC)c1 (configuration not stated) | 5.17 µM [rising, partial curve, poor fit] | – |
| CCOC(=O)N1CCN(Cc2nc3ccc([N+](=O)[O-])cc3c(=O)n2-c2ccccc2F)CC1 | 12.6 µM [rising, partial curve] | – |
| CN(C)c1ccc(N/C=C/C(=O)c2ccco2)cc1 | 32.6 µM [falling, single point] | – |
| CCCCn1c(SCc2c(C)noc2C)nc2cc(S(N)(=O)=O)ccc21 | 7.08 µM [rising, full curve] | – |
| NS(=O)(=O)c1cccc(NC(=O)CN2CCc3ccccc32)c1 | 10 µM [falling, partial curve, poor fit] | – |
| CC(=O)c1cccc2c(O)c(C3=Nc4ccccc4C3=O)[nH]c12 | 7.31 µM [falling, partial curve] | – |
| Brc1ccc(-c2noc(-c3ccccc3)n2)o1 | 31.6 µM [falling, single point] | – |
| CC(C)Cc1csc(NC(=O)c2ccccc2Cl)c1C(=O)O | 16.4 µM [falling, partial curve] | – |

5 compounds from above, arranged by molar mass, largest number first.

| Structure (SMILES) | AC50 [1] | AC50 [2] |
| --- | --- | --- |
| CCOC(=O)N1CCN(Cc2nc3ccc([N+](=O)[O-])cc3c(=O)n2-c2ccccc2F)CC1 | 12.6 µM [rising, partial curve] | – |
| CC(C)Cc1csc(NC(=O)c2ccccc2Cl)c1C(=O)O | 16.4 µM [falling, partial curve] | – |
| CC(C)c1ccc(NC2CCCN(C(=O)c3ccsc3)C2)cc1 (configuration not stated) | 2.51 µM [rising, partial curve, poor fit] | – |
| COc1ccc(-c2cnnn2-c2ccc(N)cc2)cc1OC | 29.1 µM [rising, single point] | 18.4 µM [falling, partial curve, poor fit] |
| O=C(O)CCCCCNc1nc(=S)[nH]c2ccccc12 | 13 µM [falling, partial curve] | – |
